# Assay results as given in PMC12040169 (PLOS Biology, 2025).
# The list shows a part of the results.
# Test system: T1, CTL2-GFP (C. trachomatis L2/434/Bu, GFP-expressing)
# T1 construct: L2/434/Bu, GFP-expressing
# Design: species or system HeLa; Intracellular C. trachomatis growth in HeLa cells, bulk GFP fluorescence relative to DMSO
# Details: bulk GFP, single well; 28.5 h, 10 µM; inhibitor
row,Structure (SMILES),% of control remaining [%]
1,OCCCNc1nccnc1-c1ccco1 [CBK037346],102.964
2,Cc1cc(-c2nnc(SCCC(=O)Nc3ccccc3)o2)no1 [CBK268737],120.583
3,O=C(Cc1ccc(Cl)cc1)Nc1ccc(Oc2ccc3c(c2)C(=O)NC3=O)cc1 [CBK265869],182.419
4,O=C(Nc1ccc(-c2nc3ccccc3o2)c(O)c1)c1ccc(-c2ccc([N+](=O)[O-])cc2)o1 [CBK263416],71.8532
5,CC(C)C(=O)N1CC2(CCN(Cc3cc(=O)[nH]c(=O)[nH]3)CC2)c2ccccc21 [CBK144602T],104.824
6,CCOc1ccc(/C=C2\SC(=O)NC2=S)cc1 [CBK027996],120.069
7,COc1c(C)cccc1C(=O)N1CCCCC1c1ncc(C(=O)Nc2ccccc2)c(C)n1 (stereo not shown) [CBK285841],132.035
8,O=S(=O)(Nc1ccc(C(F)(F)F)cc1Cl)c1cc(Br)c(Cl)s1 [CBK057196],38.4844
9,CN(C)CCN1C(=O)C(O)=C(C(=O)c2ccc(S(=O)(=O)N(C)C)cc2)C1c1cccnc1 (stereo not shown) [CBK264729],119.789
10,C=CCn1c2cc(C)oc2c2cnn(CC(=O)N(C)C)c(=O)c21 [CBK283326],135.003
11,CC(=O)c1ccc(NC(=O)N[C@H]2CO[C@H]3[C@@H]2OC[C@H]3OCC(N)=O)cc1 [CBK289460],105.625
12,O=C(O)C(Cc1ccccc1)N1C(=O)/C(=C/C=C/c2ccccc2)SC1=S (stereo not shown) [CBK263496],100
13,O=C(Cn1c(=O)n(Cc2ccco2)c2ncccc21)N1CCCC1 [CBK284708],143.11
14,COc1cccc2c1cc(C(=O)NCCCC1CCOC1)n2C (stereo not shown) [CBK283284],116.611
15,C[C@@H](c1ccccc1)N1C(=O)[C@@H]2CN(S(=O)(=O)c3cccs3)CCN2C1=O [CBK289635],126.132
16,CCCS(=O)(=O)n1c(=O)n(CC(=O)c2ccccc2OC)c2ccccc21 [CBK106498],131.58
17,O=C(Nc1c(F)cc(F)cc1OC1CCNCC1)c1coc2c1C(=O)CCC2 [CBK050331T],97.7439
18,O=C(c1ccc(N2CCN(C3CC(=O)N(Cc4cccs4)C3=O)CC2)cc1)c1cccnc1 (stereo not shown) [CBK269040],138.419
19,O=C(NC(c1ccc(-c2ccccc2)cc1)c1cnccn1)C1CCN(CCOc2ccc3ccccc3c2)CC1 (stereo not shown) [CBK147982],117.546
20,CC1CN(S(=O)(=O)N2CCOCC2)CCN1S(=O)(=O)N1CCOCC1 (stereo not shown) [CBK269011],94.6139
21,O=C(NCCO)c1cccc(-c2cncc(NCCCN3CCOCC3)n2)c1 [CBK065432],169.218
22,Cc1sc(-c2cnccn2)nc1O [CBK067738],104.624
23,O=C(COc1ccc2ccccc2c1)Nc1ccc(S(=O)(=O)N2CCCCC2)cc1 [CBK263765],95.4302
24,CC(=O)N1CCc2nc(C)nc(N(C)Cc3cnn(C(C)C)c3)c2CC1 [CBK306968],136.223
25,CCN(CC)c1c(C)nc2ccc(C(=O)N(C)CCN(C)C)cn12 [CBK145950],100
26,O=C(Nc1ccncc1)c1cc(-c2ccncc2)nc2ccccc12 [CBK287787],125.645

row,Structure (SMILES),% of control remaining [%]
1,O=C(N[C@H]1CCN2C(=O)N(c3ccc(Br)cc3)C(=O)[C@@H]2C1)c1cccnc1 [CBK289557],141.857
2,O=[N+]([O-])c1ccc(-c2csc(Nc3ccc4c(c3)OCO4)n2)cc1 [CBK262448B],94.0752
3,COc1ccc(OC)c2c1cc(C(=O)NC[C@H]1CC[C@H](C(=O)O)CC1)n2C [CBK286636],103.492
4,Cc1cc(/C=C(/C#N)c2ccc(C(=O)O)cc2)c(C)n1-c1ccc(S(N)(=O)=O)cc1 [CBK268896],88.5266
5,CN(C)C(CC(=O)Nc1cccc(Cl)c1Cl)C(=O)O (stereo not shown) [CBK266952],119.239
6,O=C(O)CSc1nnc(-c2ccncc2)n1-c1ccccc1 [CBK264426],112.9
7,COc1ccc(Br)c(C(CO)N(C)C(=O)CC#N)c1 (stereo not shown) [CBK304240],74.5174
8,Cc1cc(F)ccc1S(=O)(=O)N1CCC2(CC1)CNC(=O)C2 [CBK283354],121.56
9,c1nc(N2CCOCC2)c2cn[nH]c2n1 [CBK016811],128.835
10,CS(=O)(=O)Nc1ncc(-c2ccco2)cc1C(=O)NCCc1c[nH]c2ccccc12 [CBK076569],122.156
11,Cn1cc(CN2C[C@H]3CN(C(=O)C4CCC4)C[C@@]3(C(=O)O)C2)cc1C#N [CBK307105],105.821
12,CCOC(=O)c1c(C)oc2ccc(OCC(=O)c3ccc(Br)cc3)cc12 [CBK263841],100
13,CNC(=O)N1CC(=O)N(Cc2cccc(Cl)c2)C1=O [CBK001918],115.001
14,CC(C)(C)c1cnc(C(=O)NC2CCCN(c3ncccn3)C2)o1 (stereo not shown) [CBK305777],141.594
15,CNC(=O)CC1CCN(c2cc(C#N)ccc2C(F)(F)F)CC1 [CBK306450],64.8932
16,CS(=O)(=O)N(CC(=O)Nc1ccc(S(=O)(=O)N2CCCCC2)cc1)c1ccc2c(c1)OCO2 [CBK268189],102.082
17,CC(C(=O)N1CCC(c2cc3cccnc3[nH]2)CC1)N1CCCC1=O (stereo not shown) [CBK282705],105.888
18,OCc1ccccc1-c1cncc(NCC2CCOCC2)n1 [CBK037309],119.344
19,Cc1ccc(Oc2cc(-n3nc(C)c(C(N)=O)c3N)ncn2)cc1 [CBK099753],109.997
20,N=C1S/C(=C/c2ccc(-c3ccccc3C(=O)O)o2)C(=O)N1c1nccs1 [CBK077624],107.677
21,CC(=O)N/C(=C\c1ccccc1)C(=O)NC(C)C(=O)O (stereo not shown) [CBK261491],102.327
22,CS(=O)(=O)N[C@H]1C[C@H]2C(=O)Nc3ccc(-c4cccs4)cc3C(=O)N2C1 [CBK289359],123.186
23,Cc1ccc(CCC2CCN(C(=O)c3ccc(O)nc3)CC2)cc1 [CBK296724],109.577
24,COCC(=O)N1CCc2sccc2C1c1ccc(NCc2ccc(OC)cc2)cc1 (stereo not shown) [CBK286458],118.287
25,c1ccc(-n2nnnc2SCc2cccc(CSc3nnnn3-c3ccccc3)n2)cc1 [CBK263258],100
26,O=C(O)CCC(=O)Nc1ccccc1NC(=O)c1ccc(C(F)(F)F)cc1 [CBK265770],102.328

# A run of entries taken from the entries so far, as a working copy:
row,Structure (SMILES),% of control remaining [%]
4,O=C(Nc1ccc(-c2nc3ccccc3o2)c(O)c1)c1ccc(-c2ccc([N+](=O)[O-])cc2)o1 [CBK263416],71.8532
5,CC(C)C(=O)N1CC2(CCN(Cc3cc(=O)[nH]c(=O)[nH]3)CC2)c2ccccc21 [CBK144602T],104.824
6,CCOc1ccc(/C=C2\SC(=O)NC2=S)cc1 [CBK027996],120.069
7,COc1c(C)cccc1C(=O)N1CCCCC1c1ncc(C(=O)Nc2ccccc2)c(C)n1 (stereo not shown) [CBK285841],132.035
8,O=S(=O)(Nc1ccc(C(F)(F)F)cc1Cl)c1cc(Br)c(Cl)s1 [CBK057196],38.4844
9,CN(C)CCN1C(=O)C(O)=C(C(=O)c2ccc(S(=O)(=O)N(C)C)cc2)C1c1cccnc1 (stereo not shown) [CBK264729],119.789
10,C=CCn1c2cc(C)oc2c2cnn(CC(=O)N(C)C)c(=O)c21 [CBK283326],135.003
11,CC(=O)c1ccc(NC(=O)N[C@H]2CO[C@H]3[C@@H]2OC[C@H]3OCC(N)=O)cc1 [CBK289460],105.625
12,O=C(O)C(Cc1ccccc1)N1C(=O)/C(=C/C=C/c2ccccc2)SC1=S (stereo not shown) [CBK263496],100
13,O=C(Cn1c(=O)n(Cc2ccco2)c2ncccc21)N1CCCC1 [CBK284708],143.11
14,COc1cccc2c1cc(C(=O)NCCCC1CCOC1)n2C (stereo not shown) [CBK283284],116.611
15,C[C@@H](c1ccccc1)N1C(=O)[C@@H]2CN(S(=O)(=O)c3cccs3)CCN2C1=O [CBK289635],126.132
16,CCCS(=O)(=O)n1c(=O)n(CC(=O)c2ccccc2OC)c2ccccc21 [CBK106498],131.58
17,O=C(Nc1c(F)cc(F)cc1OC1CCNCC1)c1coc2c1C(=O)CCC2 [CBK050331T],97.7439
18,O=C(c1ccc(N2CCN(C3CC(=O)N(Cc4cccs4)C3=O)CC2)cc1)c1cccnc1 (stereo not shown) [CBK269040],138.419
19,O=C(NC(c1ccc(-c2ccccc2)cc1)c1cnccn1)C1CCN(CCOc2ccc3ccccc3c2)CC1 (stereo not shown) [CBK147982],117.546

# More compounds

row,Structure (SMILES),% of control remaining [%]
1,COc1ccccc1C1CCN(C(=O)c2ccc(C(C)(C)C)cc2)CC1 [CBK086469],144.11
2,C=CCC1(CC=C)CCN1C(=O)c1sc2ncn(C)c(=O)c2c1C [CBK282637],124.912
3,O=C(N[C@H]1CO[C@H]2[C@@H]1OC[C@@H]2n1cc(-c2ccccc2)nn1)N1CCOCC1 [CBK289503],128.152
4,COc1cc2nc3c4ccccc4n(CC(=O)O)c3nc2cc1OC [CBK263626],135.484
5,CN(C)CCCNC=C1C(=O)CC(C)(C)CC1=O [CBK262043],91.0025
6,Cc1cccnc1C(c1ccccc1)N(C)C(=O)C1CCN(C(=O)OCc2ccccc2)CC1 (stereo not shown) [CBK060522],100
7,CCOC(=O)Cn1c(CN2CCCCC2C)nc2c1c(=O)n(C)c(=O)n2C (stereo not shown) [CBK269382],123.961
8,Cc1cccc(Nc2nc3nonc3[nH]/c2=N\N=C/c2cn(Cc3ccc(Cl)cc3Cl)c3ccccc23)c1C [CBK262378],121.182
9,c1cncc(COc2nc3ccccc3nc2N2CCCC2)c1 [CBK115762],118.026
10,Cn1cc(-c2nc(C(=O)NC3CCCN(c4ncccn4)C3)cs2)cn1 (stereo not shown) [CBK305629],121.093
11,O=C(OCc1ccccc1)N1CCC(C(=O)N(CCc2ccccc2)Cc2ccccc2)CC1 [CBK171978],105.065
12,CC(=O)CSc1nc2c(c(=O)n(C)c(=O)n2C)n1CCCc1ccccc1 [CBK269581],135.475
13,COc1ccc(S(=O)(=O)Nc2ccc(C(=O)O)cc2)cc1OC [CBK034048],120.201
14,C/C(=N\Nc1cccc2cccnc12)C(C)(C)C [CBK021957],93.7256
15,CC(C)[C@@H](CO)Nc1nc(-c2cncnc2)cnc1N [CBK063735],198.98
16,COc1cccc(NC(=O)NC(=O)C2CCN(C(C)C)CC2)c1 [CBK034798],112.554
17,O=C(Nc1ccc2c(c1)nc1n2CCN(Cc2ccccc2)C1)NC1CCCCC1 [CBK267033],97.5371
18,Cc1ccc(-c2c[nH]c([C@@H]3COCCN3Cc3c[nH]cn3)n2)cc1 [CBK289315],171.068
19,CC(C)(C)c1ccc(O)c(NC(=S)NC(=O)c2ccccc2I)c1 [CBK264399],71.7222
20,CS(=O)(=O)N1CCc2cc(-c3csc(NCC(F)(F)F)n3)ccc21 [CBK305650],93.4645
21,O=C(Nc1cc(Oc2cccnc2)cc([N+](=O)[O-])c1)c1nn2c(C(F)(F)F)cc(-c3cccs3)nc2c1Br [CBK262535],100
22,Cc1c(O)ccc2c(COC(=O)C3(c4ccccc4)CCCC3)cc(=O)oc12 [CBK295622],130.944
23,O=C(NC(c1cccc([N+](=O)[O-])c1)c1cc(Cl)c2cccnc2c1O)c1cccnc1 (stereo not shown) [CBK263987],100
24,Cc1cc(C)nc(SCC(=O)Nc2cccc(C(=O)O)c2)n1 [CBK263214],111.867
